{"source": "patent US8247431B2", "about": "“Heterocyclic hydrazide compound and pesticidal use of the same” (Sumitomo Chemical Company, Limited, priority 2007, dated 2012)", "key": {"[1]": {"system": "Franklinella occidentalis", "assay": "Test Example 5: sprayed cucumber leaf, larvae of Franklinella occidentalis, feeding damage", "type": "in vivo", "settings": "500 ppm active ingredient, 20 ml/cup spray on cucumber, 20 larvae on cut first true leaf, seven days after spraying"}, "[2]": {"system": "silver leaf whitefly, Bemisia argentifolii (or biotype B of tobacco whitefly, Bemisia tabaci)", "assay": "Test Example 6: spray on cabbage with hatched larvae of silver leaf whitefly", "type": "in vivo", "settings": "500 ppm active ingredient, 20 ml/cup spray on cabbage with hatched larvae, counted seven days after spraying"}}, "note": "Some entries share one result that the patent states for a list of compounds.", "data": [{"smiles": "COC(=O)NNC(=O)c1nc(Cl)cc(Br)c1NC(=O)c1cc(Br)nn1-c1ncccc1Cl", "note": "[Compound 15, N′-(4-bromo-3-{[5-bromo-2-(3-chloro-pyridin-2-yl)-2H-pyrazole-3-carbonyl]-amino}-6-chloro-pyridine-2-carbonyl)-hydrazine carboxylic acid methyl ester]", "values": [{"measurement": "percentage of leaf area damaged by the insect", "setting": "[1]", "value": "≤ 5", "unit": "%"}, {"measurement": "controlling value", "setting": "[2]", "value": "≥ 90", "unit": "%"}]}, {"smiles": "CCN(NC(=O)c1nc(Cl)cc(C)c1NC(=O)c1cc(Br)nn1-c1ncccc1Cl)C(=O)OC", "note": "[Compound 10, N′-(3-{[5-bromo-2-(3-chloro-pyridin-2-yl)-2H-pyrazole-3-carbonyl]-amino}-6-chloro-4-methyl-pyridine-2-carbonyl)-N-ethyl-hydrazinecarboxylic acid methyl ester]", "values": [{"measurement": "percentage of leaf area damaged by the insect", "setting": "[1]", "value": "≤ 5", "unit": "%"}, {"measurement": "controlling value", "setting": "[2]", "value": "≥ 90", "unit": "%"}]}, {"smiles": "COC(=O)NNC(=O)c1cc(Cl)nc(Br)c1NC(=O)c1cc(Br)nn1-c1ncccc1Cl", "note": "[Compound 4, N′-(2-bromo-3-{[5-bromo-2-(3-chloro-pyridin-2-yl)-2H-pyrazole-3-carbonyl]-amino}-6-chloro-pyridine-4-carbonyl)-hydrazinecarboxylic acid methyl ester]", "values": [{"measurement": "percentage of leaf area damaged by the insect", "setting": "[1]", "value": "≤ 5", "unit": "%"}]}, {"smiles": "COC(=O)N(C)N(C)C(=O)c1nc(Cl)cc(C)c1NC(=O)c1cc(Br)nn1-c1ncccc1Cl", "note": "[Compound 9, N′-(3-{[5-bromo-2-(3-chloro-pyridin-2-yl)-2H-pyrazole-3-carbonyl]-amino}-6-chloro-4-methyl-pyridine-2-carbonyl)-N,N′-dimethyl-hydrazinecarboxylic acid methyl ester]", "values": [{"measurement": "percentage of leaf area damaged by the insect", "setting": "[1]", "value": "≤ 5", "unit": "%"}, {"measurement": "controlling value", "setting": "[2]", "value": "≥ 90", "unit": "%"}]}, {"smiles": "COC(=O)NNC(=O)c1cc(Cl)nc(C)c1NC(=O)c1cc(Br)nn1-c1ncccc1Cl", "note": "[Compound 3, N′-(3-{[5-bromo-2-(3-chloro-pyridin-2-yl)-2H-pyrazole-3-carbonyl]-amino}-6-chloro-2-methyl-pyridine-4-carbonyl)-hydrazinecarboxylic acid methyl ester]", "values": [{"measurement": "percentage of leaf area damaged by the insect", "setting": "[1]", "value": "≤ 5", "unit": "%"}]}, {"smiles": "COC(=O)NNC(=O)c1nc(Cl)cc(C)c1NC(=O)c1cc(Br)nn1-c1ncccc1Cl", "note": "[Compound 7, N′-(3-{[5-bromo-2-(3-chloro-pyridin-2-yl)-2H-pyrazole-3-carbonyl]-amino}-6-chloro-4-methyl-pyridine-2-carbonyl)-hydrazinecarboxylic acid methyl ester]", "values": [{"measurement": "percentage of leaf area damaged by the insect", "setting": "[1]", "value": "≤ 5", "unit": "%"}, {"measurement": "controlling value", "setting": "[2]", "value": "≥ 90", "unit": "%"}]}, {"smiles": "COC(=O)NNC(=O)c1cc(Cl)nc(Cl)c1NC(=O)c1cc(Br)nn1-c1ncccc1Cl", "note": "[Compound 1, N′-(3-{[5-bromo-2-(3-chloro-pyridin-2-yl)-2H-pyrazole-3-carbonyl]-amino}-2,6-dichloro-pyridine-4-carbonyl)-hydrazinecarboxylic acid methyl ester]", "values": [{"measurement": "percentage of leaf area damaged by the insect", "setting": "[1]", "value": "≤ 5", "unit": "%"}]}, {"smiles": "COC(=O)NNC(=O)c1cc(Cl)nc(Cl)c1NC(=O)c1cc(C(F)(F)F)nn1-c1ncccc1Cl", "note": "[Compound 2, N′-(2,6-dichloro-3-{[2-(3-chloro-pyridin-2-yl)-5-trifluoromethyl-2H-pyrazole-3-carbonyl]-amino}-pyridine-4-carbonyl)-hydrazinecarboxylic acid methyl ester]", "values": [{"measurement": "percentage of leaf area damaged by the insect", "setting": "[1]", "value": "≤ 5", "unit": "%"}]}, {"smiles": "COC(=O)N(C)NC(=O)c1nc(Cl)cc(C)c1NC(=O)c1cc(Br)nn1-c1ncccc1Cl", "note": "[Compound 8, N′-(3-{[5-bromo-2-(3-chloro-pyridin-2-yl)-2H-pyrazole-3-carbonyl]-amino}-6-chloro-4-methyl-pyridine-2-carbonyl)-N-methyl-hydrazinecarboxylic acid methyl ester]", "values": [{"measurement": "percentage of leaf area damaged by the insect", "setting": "[1]", "value": "≤ 5", "unit": "%"}, {"measurement": "controlling value", "setting": "[2]", "value": "≥ 90", "unit": "%"}]}, {"smiles": "CCN(NC(=O)OC)C(=O)c1nc(Cl)cc(C)c1NC(=O)c1cc(Br)nn1-c1ncccc1Cl", "note": "[Compound 11, N′-(3-{[5-bromo-2-(3-chloro-pyridin-2-yl)-2H-pyrazole-3-carbonyl]-amino}-6-chloro-4-methyl-pyridine-2-carbonyl)-N′-ethyl-hydrazine carboxylic acid methyl ester]", "values": [{"measurement": "percentage of leaf area damaged by the insect", "setting": "[1]", "value": "≤ 5", "unit": "%"}, {"measurement": "controlling value", "setting": "[2]", "value": "≥ 90", "unit": "%"}]}, {"smiles": "CCN(NC(=O)OC)C(=O)c1nc(Br)cc(Br)c1NC(=O)c1cc(Br)nn1-c1ncccc1Cl", "note": "[Compound 16, N′-(4,6-dibromo-3-{[5-bromo-2-(3-chloro-pyridin-2-yl)-2H-pyrazole-3-carbonyl]-amino}-pyridine-2-carbonyl)-N′-ethyl-hydrazinecarboxylic acid methyl ester]", "values": [{"measurement": "percentage of leaf area damaged by the insect", "setting": "[1]", "value": "≤ 5", "unit": "%"}]}, {"smiles": "COC(=O)NNC(=O)c1nc(Cl)cc(Cl)c1NC(=O)c1cc(Br)nn1-c1ncccc1Cl", "note": "[Compound 14, N′-(3-{[5-bromo-2-(3-chloro-pyridin-2-yl)-2H-pyrazole-3-carbonyl]-amino}-4,6-dichloro-pyridine-2-carbonyl)-hydrazinecarboxylic acid methyl ester]", "values": [{"measurement": "percentage of leaf area damaged by the insect", "setting": "[1]", "value": "≤ 5", "unit": "%"}, {"measurement": "controlling value", "setting": "[2]", "value": "≥ 90", "unit": "%"}]}]}
